Source: the supplement of paper PMC10849652
The other results are listed elsewhere or left out. Residues, ends and D or L forms follow the SMILES beside them. *: point of attachment. Cbz = O=C(OCc1ccccc1)*

By UniProt entry, the sequences of proteins in these tests, tags left out. Where a name states a change or a piece, a line headed by the entry shows the natural chain unless it says otherwise.
UniProt P09525: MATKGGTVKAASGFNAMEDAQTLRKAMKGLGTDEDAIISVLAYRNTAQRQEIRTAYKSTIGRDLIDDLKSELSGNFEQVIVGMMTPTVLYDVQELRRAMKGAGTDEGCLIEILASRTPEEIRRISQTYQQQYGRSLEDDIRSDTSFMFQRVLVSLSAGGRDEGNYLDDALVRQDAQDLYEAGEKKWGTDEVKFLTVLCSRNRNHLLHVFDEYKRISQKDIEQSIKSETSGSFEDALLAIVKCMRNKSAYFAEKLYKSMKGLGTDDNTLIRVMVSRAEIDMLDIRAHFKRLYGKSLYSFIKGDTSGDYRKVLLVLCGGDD
UniProt Q8IWW6: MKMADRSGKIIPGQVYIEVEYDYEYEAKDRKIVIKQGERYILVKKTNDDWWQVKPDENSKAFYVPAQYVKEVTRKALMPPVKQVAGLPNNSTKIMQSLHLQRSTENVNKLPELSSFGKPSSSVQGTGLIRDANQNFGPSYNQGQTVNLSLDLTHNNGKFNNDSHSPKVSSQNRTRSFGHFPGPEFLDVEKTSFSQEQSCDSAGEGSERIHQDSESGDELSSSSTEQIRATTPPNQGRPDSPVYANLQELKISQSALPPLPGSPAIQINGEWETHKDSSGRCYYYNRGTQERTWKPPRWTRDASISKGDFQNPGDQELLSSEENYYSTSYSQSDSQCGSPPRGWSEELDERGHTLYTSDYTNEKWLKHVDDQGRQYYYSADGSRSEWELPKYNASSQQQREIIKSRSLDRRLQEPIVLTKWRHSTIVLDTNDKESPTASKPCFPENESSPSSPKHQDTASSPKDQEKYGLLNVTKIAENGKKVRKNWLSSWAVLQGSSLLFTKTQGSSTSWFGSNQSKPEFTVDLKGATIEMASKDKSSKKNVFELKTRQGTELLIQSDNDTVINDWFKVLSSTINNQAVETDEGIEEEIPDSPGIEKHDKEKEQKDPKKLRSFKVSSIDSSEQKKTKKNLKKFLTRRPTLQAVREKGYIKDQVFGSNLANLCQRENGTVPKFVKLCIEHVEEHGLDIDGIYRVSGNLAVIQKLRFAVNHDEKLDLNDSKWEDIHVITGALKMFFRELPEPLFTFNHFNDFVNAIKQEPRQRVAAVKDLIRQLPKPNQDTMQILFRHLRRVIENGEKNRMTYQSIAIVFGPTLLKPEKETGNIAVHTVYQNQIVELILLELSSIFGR
UniProt P50995, whole entry, looked up: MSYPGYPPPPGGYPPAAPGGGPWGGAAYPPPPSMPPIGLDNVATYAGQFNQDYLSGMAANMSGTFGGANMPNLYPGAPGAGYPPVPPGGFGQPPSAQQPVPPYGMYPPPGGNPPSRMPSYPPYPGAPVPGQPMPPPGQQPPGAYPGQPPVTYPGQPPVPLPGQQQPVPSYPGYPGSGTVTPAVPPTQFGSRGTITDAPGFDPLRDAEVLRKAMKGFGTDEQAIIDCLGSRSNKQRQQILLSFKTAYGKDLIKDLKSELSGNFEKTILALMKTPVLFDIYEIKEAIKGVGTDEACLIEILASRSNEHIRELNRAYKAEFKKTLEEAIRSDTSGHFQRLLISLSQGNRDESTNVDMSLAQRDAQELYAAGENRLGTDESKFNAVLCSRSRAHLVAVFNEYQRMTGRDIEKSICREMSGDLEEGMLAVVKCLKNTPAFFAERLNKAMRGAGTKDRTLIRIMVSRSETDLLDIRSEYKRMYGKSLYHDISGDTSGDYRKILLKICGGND
UniProt P61204: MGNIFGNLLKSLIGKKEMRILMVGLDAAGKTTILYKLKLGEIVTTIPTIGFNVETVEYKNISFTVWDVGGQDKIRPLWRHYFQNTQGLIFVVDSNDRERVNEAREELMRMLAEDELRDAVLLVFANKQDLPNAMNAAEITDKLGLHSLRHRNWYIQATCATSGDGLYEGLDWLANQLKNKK
UniProt Q9NP61: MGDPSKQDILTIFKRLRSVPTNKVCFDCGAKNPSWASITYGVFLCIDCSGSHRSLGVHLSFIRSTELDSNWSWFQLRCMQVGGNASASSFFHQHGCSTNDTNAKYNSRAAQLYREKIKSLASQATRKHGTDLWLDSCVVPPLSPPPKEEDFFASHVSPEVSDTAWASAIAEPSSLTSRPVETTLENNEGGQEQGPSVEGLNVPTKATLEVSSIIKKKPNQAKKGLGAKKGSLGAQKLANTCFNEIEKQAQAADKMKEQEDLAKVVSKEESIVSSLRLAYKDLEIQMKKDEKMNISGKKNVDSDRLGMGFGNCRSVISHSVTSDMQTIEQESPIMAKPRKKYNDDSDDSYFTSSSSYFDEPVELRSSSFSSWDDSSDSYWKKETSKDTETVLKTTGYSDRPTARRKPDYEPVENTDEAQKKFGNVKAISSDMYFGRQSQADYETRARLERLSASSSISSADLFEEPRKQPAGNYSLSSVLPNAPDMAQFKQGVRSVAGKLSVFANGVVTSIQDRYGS
UniProt P52565: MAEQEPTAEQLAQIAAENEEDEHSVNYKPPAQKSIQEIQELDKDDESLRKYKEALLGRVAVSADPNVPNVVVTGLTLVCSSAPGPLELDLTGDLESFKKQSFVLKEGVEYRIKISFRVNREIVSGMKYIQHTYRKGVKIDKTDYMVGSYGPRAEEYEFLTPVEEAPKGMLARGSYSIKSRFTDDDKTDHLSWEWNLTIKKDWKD
UniProt Q9UJX4, whole entry, looked up: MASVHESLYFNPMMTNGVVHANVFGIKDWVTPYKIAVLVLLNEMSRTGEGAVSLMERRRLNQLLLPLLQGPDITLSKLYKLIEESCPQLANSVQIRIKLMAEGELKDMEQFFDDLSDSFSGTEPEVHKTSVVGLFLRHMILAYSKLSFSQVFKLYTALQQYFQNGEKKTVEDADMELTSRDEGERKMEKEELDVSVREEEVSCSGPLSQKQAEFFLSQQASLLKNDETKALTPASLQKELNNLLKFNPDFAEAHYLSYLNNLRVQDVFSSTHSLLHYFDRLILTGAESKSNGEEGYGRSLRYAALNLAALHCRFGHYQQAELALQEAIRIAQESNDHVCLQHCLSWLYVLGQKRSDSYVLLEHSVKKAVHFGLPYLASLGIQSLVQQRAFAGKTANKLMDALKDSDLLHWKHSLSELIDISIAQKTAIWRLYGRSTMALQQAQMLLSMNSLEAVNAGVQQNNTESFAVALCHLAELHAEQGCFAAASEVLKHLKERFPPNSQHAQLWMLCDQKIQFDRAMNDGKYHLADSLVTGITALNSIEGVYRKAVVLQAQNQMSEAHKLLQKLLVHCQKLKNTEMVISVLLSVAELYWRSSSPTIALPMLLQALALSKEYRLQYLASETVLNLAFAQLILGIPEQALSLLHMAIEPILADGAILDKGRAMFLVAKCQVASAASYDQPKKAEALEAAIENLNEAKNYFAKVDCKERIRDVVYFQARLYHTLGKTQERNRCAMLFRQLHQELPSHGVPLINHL
UniProt P62330: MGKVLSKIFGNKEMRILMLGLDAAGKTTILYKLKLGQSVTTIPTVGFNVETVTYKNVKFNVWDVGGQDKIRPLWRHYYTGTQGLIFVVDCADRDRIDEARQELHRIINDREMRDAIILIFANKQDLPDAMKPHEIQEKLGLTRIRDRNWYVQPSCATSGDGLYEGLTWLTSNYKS
UniProt Q8N392: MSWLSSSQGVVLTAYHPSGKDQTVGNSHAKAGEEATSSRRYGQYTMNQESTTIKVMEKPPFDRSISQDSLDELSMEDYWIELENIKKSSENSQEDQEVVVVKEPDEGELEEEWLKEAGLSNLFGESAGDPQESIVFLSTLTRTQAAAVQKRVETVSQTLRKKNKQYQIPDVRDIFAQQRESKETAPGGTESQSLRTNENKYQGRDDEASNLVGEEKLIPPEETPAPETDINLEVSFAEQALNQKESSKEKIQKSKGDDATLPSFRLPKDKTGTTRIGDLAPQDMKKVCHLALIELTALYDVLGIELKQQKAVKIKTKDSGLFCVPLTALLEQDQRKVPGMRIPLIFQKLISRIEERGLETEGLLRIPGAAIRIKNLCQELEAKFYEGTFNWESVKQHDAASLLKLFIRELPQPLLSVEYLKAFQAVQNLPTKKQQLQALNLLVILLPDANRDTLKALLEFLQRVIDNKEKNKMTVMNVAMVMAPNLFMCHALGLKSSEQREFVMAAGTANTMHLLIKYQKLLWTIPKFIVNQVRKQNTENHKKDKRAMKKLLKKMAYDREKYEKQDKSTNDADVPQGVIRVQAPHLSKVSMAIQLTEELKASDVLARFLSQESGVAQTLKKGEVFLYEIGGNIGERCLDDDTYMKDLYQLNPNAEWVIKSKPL
UniProt Q10567: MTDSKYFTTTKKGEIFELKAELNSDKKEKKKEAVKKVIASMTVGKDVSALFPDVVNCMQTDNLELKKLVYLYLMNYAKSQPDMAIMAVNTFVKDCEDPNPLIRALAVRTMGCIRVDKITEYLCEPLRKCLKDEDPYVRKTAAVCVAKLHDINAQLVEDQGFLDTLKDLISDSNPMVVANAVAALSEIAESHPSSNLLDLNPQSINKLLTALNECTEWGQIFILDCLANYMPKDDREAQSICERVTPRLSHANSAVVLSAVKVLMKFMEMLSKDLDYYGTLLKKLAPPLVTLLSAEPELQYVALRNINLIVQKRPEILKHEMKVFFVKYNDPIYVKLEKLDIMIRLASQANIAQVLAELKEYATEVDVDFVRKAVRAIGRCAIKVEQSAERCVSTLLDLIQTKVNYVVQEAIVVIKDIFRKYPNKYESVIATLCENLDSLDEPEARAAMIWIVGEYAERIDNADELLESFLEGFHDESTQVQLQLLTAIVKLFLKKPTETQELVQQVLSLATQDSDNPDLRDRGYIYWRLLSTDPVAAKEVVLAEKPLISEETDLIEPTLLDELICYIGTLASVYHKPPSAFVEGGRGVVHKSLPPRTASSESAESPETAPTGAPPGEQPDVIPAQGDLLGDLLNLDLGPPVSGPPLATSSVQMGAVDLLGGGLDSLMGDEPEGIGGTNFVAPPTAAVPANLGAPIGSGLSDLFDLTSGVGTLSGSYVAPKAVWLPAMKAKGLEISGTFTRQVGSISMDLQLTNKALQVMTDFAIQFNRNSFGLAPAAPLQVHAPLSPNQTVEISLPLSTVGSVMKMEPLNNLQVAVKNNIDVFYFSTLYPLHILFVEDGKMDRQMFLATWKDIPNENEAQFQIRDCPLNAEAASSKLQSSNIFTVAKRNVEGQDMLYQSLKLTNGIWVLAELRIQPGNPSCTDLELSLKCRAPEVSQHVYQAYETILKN
UniProt P53365: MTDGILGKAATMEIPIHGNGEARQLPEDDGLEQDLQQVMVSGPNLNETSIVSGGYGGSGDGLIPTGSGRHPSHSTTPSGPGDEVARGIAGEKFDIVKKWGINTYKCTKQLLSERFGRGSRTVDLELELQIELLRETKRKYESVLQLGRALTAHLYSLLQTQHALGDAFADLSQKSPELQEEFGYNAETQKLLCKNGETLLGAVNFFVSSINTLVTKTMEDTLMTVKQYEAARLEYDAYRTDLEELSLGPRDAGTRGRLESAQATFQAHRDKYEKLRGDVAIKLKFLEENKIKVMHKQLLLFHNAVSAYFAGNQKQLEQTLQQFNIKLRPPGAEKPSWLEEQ
UniProt Q0VD83: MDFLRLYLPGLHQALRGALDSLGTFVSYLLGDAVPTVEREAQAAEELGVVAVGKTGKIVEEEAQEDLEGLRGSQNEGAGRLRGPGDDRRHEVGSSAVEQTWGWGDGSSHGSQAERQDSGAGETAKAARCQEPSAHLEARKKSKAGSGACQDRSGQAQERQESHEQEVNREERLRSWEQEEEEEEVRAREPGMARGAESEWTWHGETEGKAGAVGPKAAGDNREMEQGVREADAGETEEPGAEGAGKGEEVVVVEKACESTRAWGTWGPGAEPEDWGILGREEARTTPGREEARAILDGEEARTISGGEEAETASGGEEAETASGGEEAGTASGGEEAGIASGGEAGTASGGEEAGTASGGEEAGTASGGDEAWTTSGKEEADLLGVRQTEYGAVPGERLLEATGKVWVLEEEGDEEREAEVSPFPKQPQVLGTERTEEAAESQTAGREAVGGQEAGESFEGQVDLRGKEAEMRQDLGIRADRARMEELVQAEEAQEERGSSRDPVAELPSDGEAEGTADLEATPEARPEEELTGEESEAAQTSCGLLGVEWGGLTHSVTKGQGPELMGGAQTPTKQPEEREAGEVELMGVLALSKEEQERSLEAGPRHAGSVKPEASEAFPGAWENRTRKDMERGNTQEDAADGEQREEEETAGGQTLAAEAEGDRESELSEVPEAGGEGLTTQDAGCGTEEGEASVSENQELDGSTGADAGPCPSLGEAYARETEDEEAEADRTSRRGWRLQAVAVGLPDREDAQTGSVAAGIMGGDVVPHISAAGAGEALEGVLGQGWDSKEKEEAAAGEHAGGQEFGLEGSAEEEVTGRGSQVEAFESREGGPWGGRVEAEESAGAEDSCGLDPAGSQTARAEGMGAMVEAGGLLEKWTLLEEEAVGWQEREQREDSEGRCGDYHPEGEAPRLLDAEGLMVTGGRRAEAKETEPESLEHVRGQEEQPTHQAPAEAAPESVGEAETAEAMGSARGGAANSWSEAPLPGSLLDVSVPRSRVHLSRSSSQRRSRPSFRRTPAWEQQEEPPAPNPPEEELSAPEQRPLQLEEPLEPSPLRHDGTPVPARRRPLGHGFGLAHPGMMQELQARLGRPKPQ

Assays:
Experiment in all cases: log2 fold change, soluble protein after heating vs DMSO (PISA); higher = thermal stabilisation; K562 cells, 10 uM, 30 min; active = over 0.2 and 3.5 SD of the protein, either way, in both replicates (recomputed)
[1] = compound: C#Cc1cccc(Nc2ncnc3cc(OCCOC)c(OCCOC)cc23)c1 [erlotinib]
In short: (§1)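 K562 cells at 2×10^6 cells/mL were treated with 10 μM compound for 30 min. Aliquots were heated for 3 min across 48°C-58°C, pooled, and extracted in PBS with 0.5% NP-40 at 4°C; soluble protein was the supernatant after 21,000xg for 90 min. Soluble protein was quantified by TMTpro 16plex LC-MS/MS with channel sums equalised, and reported as log2 fold change in thermal stability against DMSO controls, with values from duplicates.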

[2] = compound: C/C(=N\NC(=O)C1=CC(=CC=C1)S(=O)(=O)N2CCOCC2)/C3=C(C=CC(=C3)Cl)O
In short: as §1

[3] = compound: C1=CC(=C(C=C1Cl)C2=NC3=NC=CN=C3C(=N2)NC4=CC=NC=C4)F
In short: as §1

[4] = compound: C1=CC(=CC=C1C2=NC3=C(N2)C=C(C=C3)C(=O)N)OC4=CC=C(C=C4)Cl
In short: as §1

[5] = compound: C1=CC2=C(C=CC(=C2)/C=C\3/C(=O)NC(=NCC4=CC=CS4)S3)N=C1
In short: as §1

[6] = compound: C1=CC2=NC=CN=C2C=C1/C=C/3\C(=O)NC(=O)S3
In short: as §1

[7] = compound: C1=CC=C(C=C1)C2=NC(=C(N2)C3=CC=NC=C3)C4=CC(=C(C=C4)Cl)O
In short: as §1

[8] = compound: C1=CC=C2C(=C1)C3=NNC4=CC=CC(=C43)C2=O
In short: as §1

[9] = compound: C1CCN(C1)C(=O)NC2=CC=CC(=C2)NC3=NC=C(C(=N3)NCCC4=CN=CN4)Br
In short: as §1

[10] = compound: C1CN(CCC1(CC2=CC=C(C=C2)Cl)N)C3=NC=NC4=C3C=CN4
In short: as §1

[11] = compound: C1COCCN1CCN2C3=CC=CC=C3N=C2NC(=O)C4=CC(=CC=C4)[N+](=O)[O-] [IRAK-1-4 Inhibitor I]
In short: as §1

[12] = compound: C=CC(=O)N1CCC[C@@H](n2nc(-c3ccc(Oc4ccccc4)cc3)c3c(N)ncnc32)C1 [ibrutinib]
In short: as §1

[13] = compound: CC(=O)c1cnc2ccc(-c3cc(Cl)c(O)c(Cl)c3)nc2c1N[C@H]1CC[C@H](CN(C)C)CC1
In short: as §1

[14] = compound: CC(C)(C)Cn1c(N)nc2ccc(-c3[nH]c(C(C)(C)C)nc3-c3ccc(F)cc3)nc21 [ralimetinib]
In short: as §1

[15] = compound: CC(C)(O)CC(=O)NCCn1ccc2ncnc(Nc3ccc(Oc4cccc(C(F)(F)F)c4)c(Cl)c3)c21
In short: as §1

[16] = compound: CC(C)C1=C2N=C(C=C(N2N=C1)NCC3=CC=CC=C3)NCCCCCCN
In short: as §1

[17] = compound: CC(C)C[C@@H](C=O)NC(=O)[C@H](CC(C)C)NC(=O)[C@H](CC(C)C)NC(=O)OCc1ccccc1
In short: as §1

[18] = compound: CC(C)N(C[C@H]1O[C@@H](n2cnc3c(N)ncnc32)[C@H](O)[C@@H]1O)[C@H]1C[C@@H](CCc2nc3cc(C(C)(C)C)ccc3[nH]2)C1 [pinometostat]
In short: as §1

[19] = compound: CC1=C(C(CC(=O)N1)C2=CC=C(C=C2)C(F)(F)F)C(=O)NC3=C(C=C4C(=C3)C=NN4)F
In short: as §1

[20] = compound: CC1=C(C2=C(C=C1)C(=O)C3=CC=CC=C3N2CCCN)C
In short: as §1

Measured: log2 fold change

ANXA4 (UniProt P09525)
inactive: [1] 0.05 | [2] 0.058 | [3] 0.061 | [4] 0.021 | [5] 0.1 | [6] -0.029 | [7] 0.022 | [8] -0.005 | [9] -0.016 | [10] -0.032 | [11] -0.032 | [12] -0.031 | [13] 0 | [14] -0.018 | [15] -0.097 | [16] -0.089 | [17] 0.067 | [18] 0.113 | [19] -0.031 | [20] 0.143

ANAPC4 isoform 3 (UniProt Q9UJX5)
inactive: [1] 0.008 | [2] 0.046 | [3] -0.013 | [4] 0.046 | [5] -0.031 | [6] 0.006 | [7] 0.017 | [8] -0.035 | [9] -0.034 | [10] 0.016 | [11] -0.03 | [12] 0.004 | [13] 0.006 | [14] 0.056 | [15] 0.036 | [16] -0.051 | [17] 0.001 | [18] 0.065 | [19] -0.004 | [20] -0.041

ARHGAP12 (UniProt Q8IWW6)
inactive: [1] 0.088 | [2] 0.123 | [3] 0.096 | [4] -0.016 | [5] 0.116 | [6] -0.061 | [7] -0.032 | [8] -0.024 | [9] -0.104 | [10] 0.204 | [11] 0.096 | [12] 0.112 | [13] -0.17 | [14] 0.03 | [15] -0.049 | [16] 0.009 | [17] 0.09 | [18] 0 | [19] -0.036 | [20] 0.097

ANXA11 (UniProt P50995)
inactive: [1] 0.018 | [2] 0.094 | [3] 0.068 | [4] -0.029 | [5] 0.048 | [6] -0.013 | [7] 0.042 | [8] 0.079 | [9] 0 | [10] -0.028 | [11] 0.02 | [12] -0.08 | [13] -0.028 | [14] -0.003 | [15] -0.08 | [16] -0.037 | [17] -0.039 | [18] -0.011 | [19] -0.023 | [20] 0.042

ARF3 (UniProt P61204)
inactive: [1] 0.004 | [2] 0.039 | [3] 0.034 | [4] -0.006 | [5] 0.027 | [6] 0.007 | [7] 0.029 | [8] 0.005 | [9] -0.019 | [10] 0.025 | [11] -0.004 | [12] 0.003 | [13] -0.006 | [14] -0.021 | [15] -0.018 | [16] 0.075 | [17] -0.018 | [18] -0.049 | [19] -0.008 | [20] -0.005

ARHGDIB (UniProt P52566)
inactive: [1] 0.027 | [2] -0.01 | [3] 0.093 | [4] -0.024 | [5] 0.093 | [6] 0.026 | [7] 0.008 | [8] -0.006 | [9] 0.046 | [10] 0 | [11] 0.037 | [12] -0.031 | [13] -0.017 | [14] -0.018 | [15] -0.01 | [16] 0.039 | [17] -0.021 | [18] 0.002 | [19] -0.021 | [20] 0.044

ARFGAP3 (UniProt Q9NP61)
inactive: [1] -0.034 | [2] 0.079 | [3] 0.048 | [4] 0.001 | [5] 0.075 | [6] 0.032 | [7] -0.036 | [8] -0.017 | [9] -0.011 | [10] 0.093 | [11] 0.013 | [12] -0.015 | [13] -0.018 | [14] 0.033 | [15] -0.025 | [16] 0.066 | [17] 0.063 | [18] 0.01 | [19] 0.006 | [20] 0.042

ARHGDIA (UniProt P52565)
inactive: [1] 0.014 | [2] 0.093 | [3] 0.057 | [4] 0.003 | [5] -0.076 | [6] 0.003 | [7] -0.017 | [8] 0.09 | [9] -0.075 | [10] 0.039 | [11] 0.023 | [12] -0.015 | [13] 0.024 | [14] -0.021 | [15] -0.039 | [16] 0.104 | [17] -0.007 | [18] -0.016 | [19] -0.032 | [20] -0.008

ANAPC5 (UniProt Q9UJX4)
inactive: [1] -0.052 | [2] 0.039 | [3] -0.048 | [4] 0.034 | [5] -0.023 | [6] 0.008 | [7] 0.005 | [8] 0.043 | [9] 0 | [10] -0.055 | [11] -0.037 | [12] -0.026 | [13] -0.028 | [14] 0.043 | [15] 0.006 | [16] -0.008 | [17] 0.053 | [18] 0.085 | [19] -0.027 | [20] -0.06

ARF6 (UniProt P62330)
inactive: [1] 0.035 | [2] 0.034 | [3] 0.018 | [4] -0.042 | [5] -0.08 | [6] 0.038 | [7] 0.067 | [8] -0.008 | [9] -0.028 | [10] 0.058 | [11] 0.012 | [12] 0.03 | [13] 0.004 | [14] 0.04 | [15] 0.001 | [16] 0.155 | [17] -0.091 | [18] -0.012 | [19] -0.015 | [20] 0.089

ARHGAP18 (UniProt Q8N392)
inactive: [1] 0.063 | [2] 0.032 | [3] -0.142 | [4] -0.071 | [5] 0.053 | [6] 0.024 | [7] -0.105 | [8] 0.104 | [9] -0.072 | [10] -0.171 | [11] -0.177 | [12] -0.101 | [13] 0.003 | [14] -0.008 | [15] -0.24 | [16] -0.108 | [17] 0.061 | [18] 0.041 | [19] -0.025 | [20] 0.038

2 neighbouring records from above, quoted:
ANAPC5 (UniProt Q9UJX4)
inactive: [1] -0.052 | [2] 0.039 | [3] -0.048 | [4] 0.034 | [5] -0.023 | [6] 0.008 | [7] 0.005 | [8] 0.043 | [9] 0 | [10] -0.055 | [11] -0.037 | [12] -0.026 | [13] -0.028 | [14] 0.043 | [15] 0.006 | [16] -0.008 | [17] 0.053 | [18] 0.085 | [19] -0.027 | [20] -0.06

ARF6 (UniProt P62330)
inactive: [1] 0.035 | [2] 0.034 | [3] 0.018 | [4] -0.042 | [5] -0.08 | [6] 0.038 | [7] 0.067 | [8] -0.008 | [9] -0.028 | [10] 0.058 | [11] 0.012 | [12] 0.03 | [13] 0.004 | [14] 0.04 | [15] 0.001 | [16] 0.155 | [17] -0.091 | [18] -0.012 | [19] -0.015 | [20] 0.089

Next part:

AP1B1 (UniProt Q10567)
inactive: [1] 0.047 | [2] 0.062 | [3] 0.008 | [4] -0.017 | [5] -0.053 | [6] 0.04 | [7] 0.036 | [8] 0.029 | [9] -0.05 | [10] 0 | [11] -0.008 | [12] 0.001 | [13] 0.031 | [14] 0.034 | [15] -0.026 | [16] -0.041 | [17] -0.047 | [18] 0.007 | [19] 0 | [20] 0

ANKHD1 isoform 6 (UniProt Q8IWZ3)
inactive: [1] 0.012 | [2] 0.032 | [3] -0.224 | [4] -0.1 | [5] -0.03 | [6] -0.001 | [7] -0.032 | [8] 0.015 | [9] -0.083 | [10] -0.108 | [11] -0.118 | [12] -0.007 | [13] 0.054 | [14] 0.192 | [15] -0.017 | [16] -0.394 | [17] 0.094 | [18] 0.323 | [19] 0.038 | [20] -0.109

ARFIP2 (UniProt P53365)
inactive: [1] 0.056 | [2] 0.088 | [3] 0.114 | [4] 0.015 | [5] -0.052 | [6] 0.018 | [7] 0.017 | [8] -0.03 | [9] -0.051 | [10] 0.075 | [11] 0.045 | [12] -0.034 | [13] -0.034 | [14] -0.113 | [15] -0.18 | [16] -0.106 | [17] 0.038 | [18] 0.114 | [19] 0.116 | [20] 0.016

APOBR (UniProt Q0VD83)
inactive: [1] 0.042 | [2] 0.008 | [3] 0.038 | [4] -0.008 | [5] 0.048 | [6] 0.036 | [7] -0.03 | [8] -0.017 | [9] 0.038 | [10] 0.001 | [11] 0.053 | [12] 0.041 | [13] -0.037 | [14] -0.006 | [15] -0.021 | [16] 0.043 | [17] 0.023 | [18] 0.002 | [19] 0.045 | [20] -0.025

AP1M1 (UniProt Q9BXS5)
inactive: [1] 0.012 | [2] 0.015 | [3] -0.009 | [4] 0.015 | [5] 0.052 | [6] 0.044 | [7] 0.016 | [8] 0.002 | [9] -0.033 | [10] 0.032 | [11] -0.014 | [12] -0.029 | [13] 0.019 | [14] -0.002 | [15] -0.021 | [16] -0.001 | [17] -0.048 | [18] 0.035 | [19] -0.01 | [20] -0.026
